The match of structure and compound is tentative.
Target: PI3K (p110α/p85α) (Homo sapiens, UniProt P42336)
Assay: PI3K Activity Assay (ADP Hunter Plus)
Format: biochemical
Conditions: read-out: PI3Kα IC50; quantitative results of Table 4

Amino acid sequences for entries named in this document (tags omitted).
UniProt P42336, whole entry: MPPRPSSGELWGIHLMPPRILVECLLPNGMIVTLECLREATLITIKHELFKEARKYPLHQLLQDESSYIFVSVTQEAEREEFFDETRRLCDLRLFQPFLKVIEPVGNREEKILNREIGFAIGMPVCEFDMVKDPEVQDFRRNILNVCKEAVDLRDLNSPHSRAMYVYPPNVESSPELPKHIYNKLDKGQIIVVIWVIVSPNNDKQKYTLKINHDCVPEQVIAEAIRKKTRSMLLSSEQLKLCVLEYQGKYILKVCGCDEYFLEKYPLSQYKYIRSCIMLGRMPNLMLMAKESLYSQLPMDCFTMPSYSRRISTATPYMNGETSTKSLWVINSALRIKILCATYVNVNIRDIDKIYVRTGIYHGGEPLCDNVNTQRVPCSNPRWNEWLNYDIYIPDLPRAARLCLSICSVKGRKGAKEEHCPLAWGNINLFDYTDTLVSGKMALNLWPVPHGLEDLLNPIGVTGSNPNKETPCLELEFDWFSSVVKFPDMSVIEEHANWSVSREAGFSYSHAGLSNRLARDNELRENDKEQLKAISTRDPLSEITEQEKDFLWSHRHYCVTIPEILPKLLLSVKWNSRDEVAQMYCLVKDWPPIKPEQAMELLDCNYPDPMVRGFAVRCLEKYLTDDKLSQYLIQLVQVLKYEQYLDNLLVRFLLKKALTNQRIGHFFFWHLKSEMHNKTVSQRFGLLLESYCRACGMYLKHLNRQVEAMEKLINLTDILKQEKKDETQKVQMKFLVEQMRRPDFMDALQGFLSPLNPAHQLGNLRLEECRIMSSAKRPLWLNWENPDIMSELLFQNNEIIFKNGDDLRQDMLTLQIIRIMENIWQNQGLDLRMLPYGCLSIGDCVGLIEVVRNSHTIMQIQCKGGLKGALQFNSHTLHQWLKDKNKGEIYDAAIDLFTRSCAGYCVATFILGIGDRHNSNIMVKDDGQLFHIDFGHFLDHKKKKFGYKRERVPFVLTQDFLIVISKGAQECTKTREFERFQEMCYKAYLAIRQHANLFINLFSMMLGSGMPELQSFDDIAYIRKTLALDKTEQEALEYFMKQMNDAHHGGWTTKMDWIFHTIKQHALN
UniProt P27986, whole entry partner: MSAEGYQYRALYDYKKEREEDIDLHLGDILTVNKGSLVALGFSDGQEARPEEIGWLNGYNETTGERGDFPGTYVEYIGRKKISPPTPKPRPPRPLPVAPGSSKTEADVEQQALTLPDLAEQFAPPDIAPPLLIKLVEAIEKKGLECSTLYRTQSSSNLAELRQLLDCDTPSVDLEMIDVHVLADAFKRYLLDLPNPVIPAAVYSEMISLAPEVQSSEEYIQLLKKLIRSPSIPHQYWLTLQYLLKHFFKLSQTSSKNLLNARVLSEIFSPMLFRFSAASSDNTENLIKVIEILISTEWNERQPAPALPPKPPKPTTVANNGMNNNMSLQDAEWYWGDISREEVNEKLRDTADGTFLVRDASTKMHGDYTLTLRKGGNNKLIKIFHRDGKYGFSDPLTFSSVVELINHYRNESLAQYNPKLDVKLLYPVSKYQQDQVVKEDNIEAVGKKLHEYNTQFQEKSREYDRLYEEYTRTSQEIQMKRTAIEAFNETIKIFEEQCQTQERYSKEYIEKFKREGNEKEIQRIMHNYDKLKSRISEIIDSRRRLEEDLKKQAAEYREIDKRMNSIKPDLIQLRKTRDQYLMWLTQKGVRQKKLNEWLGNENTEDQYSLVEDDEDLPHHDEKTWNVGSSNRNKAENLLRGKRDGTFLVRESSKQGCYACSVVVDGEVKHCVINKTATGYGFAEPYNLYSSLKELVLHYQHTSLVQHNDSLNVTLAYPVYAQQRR

Row | SMILES | IC50 [nM]
1 | COCCCNC(=O)c1cn2cc(-c3cccnc3)nc(N3CCOCC3)c2n1 | 295
2 | COCCNC(=O)c1cn2cc(-c3cccnc3)nc(N3CCOCC3)c2n1 [2-154] | 617
